According to PubChem BioAssay AID504648 (National Center for Advancing Translational Sciences (NCATS), 2011):
Out of some 390,000 compounds screened, about 610 (0.16%) were called active. Inconclusive results, whose numbers are uncertain, are shown with a selection of clear calls. Calls follow the shape of the dose curve; as a rule, active = well fitted inhibition curve with a large enough effect; inconclusive = small, poorly fitted or top-dose-only effect, or effect the other way, or another doubt; inactive = no such curve, though single readings can be large or run the other way. Potencies beside an inconclusive call are fits to weak or partial responses and may not hold up. More than one record can exist for a structure, and the calls need not agree.
% is scaled to controls: 0 for no effect and ±100 for the full control effect; potency is read from the fitted curve at half-maximal effect.

Test: Nrf2 qHTS screen for inhibitors: counterscreen for cytotoxicity
Details: A549 ARE-Fluc cells, CellTiter-Fluor viability, 18-24 h; activity change, negative = cytotoxicity: at 46 µM (top of the series)
Summary of the method: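 A549 ARE-Fluc cells in 5% FBS OPTI-MEM, 5000 cells/well, rested 2 h then exposed to compounds in concentration-response for 18-24 h at 37 °C. Viability by CellTiter-Fluor fluorescence (Ex 405/Em 525) after 30 min; luciferase luminescence (BugLite, 15 min, RT) read afterwards.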
For `Cc1oc2c(c1C(=O)c1ccccc1)C(=O)C(=O)c1ccccc1-2`, the Potency was inconclusive: 16.4 µM [falling, single point]. For `CN(/N=C/Cc1nnnn1-c1ccc(Cl)cc1)c1ccccc1`, the Potency was inconclusive: 6.51 µM [activator, single point]. In the case of `Cc1cccc(N2CCN(C(=S)c3ccc(-c4ccccc4[N+](=O)[O-])o3)CC2)c1`, the Potency was inconclusive: 32.6 µM [falling, partial curve, poor fit]. In the case of `COc1ccc(CN2C(=O)CCC2(C)C(=O)NCc2cccnc2)c(OC)c1` (centres undefined), the “activity change, negative = cytotoxicity” value was inactive: -1.94%. In the case of `Cc1cc(C)c2c(N)c(C(=O)Nc3ccccc3C(F)(F)F)sc2n1`, the “activity change, negative = cytotoxicity” value was inactive: -0.112%. For `NCc1nc(-c2ccc(Cl)cc2)no1`, the Potency was inconclusive: 29.1 µM [activator, single point]. For `COc1ccc(C)cc1NC(=O)CCN1CCN(C/C=C/c2ccccc2)CC1`, the Potency was inconclusive: 7.31 µM [falling, partial curve, poor fit]. For `CCCCOCCCN1CC(=O)N2C(C)c3[nH]c4ccccc4c3C[C@H]2C1=O` (some centres undefined), the Potency was inconclusive: 32.6 µM [falling, partial curve, poor fit]. For `CC(C)(C)NC(=O)C(c1ccc(-c2ccccc2)cc1)N(C[C@H]1CC[C@@H]([C@@H]2CC[C@H](CO)O2)O1)C(=O)c1cccc(Cl)c1` (some centres undefined), the Potency was inconclusive: 16.4 µM [falling, partial curve]. With `O=C(Nc1ccc(Oc2ccccc2)nc1)C1CCCCN1Cc1ccco1` (centres undefined) the Potency was inconclusive: 8.2 µM [falling, partial curve, poor fit]. With `CCOc1ccccc1C1C(C(=O)OC)=CN(C)C=C1C(=O)OC` the Potency was inconclusive: 29.1 µM [activator, single point]. In the case of `CC(Sc1nc2ccccc2n1C)C(=O)NC(c1ccccc1)c1ccccc1` (centres undefined), the Potency was inconclusive: 20.6 µM [falling, partial curve]. In the case of `CCC1CN(C(=O)Nc2cc(Cl)ccc2C(=O)OC)c2ccccc2S1` (centres undefined), the Potency was inconclusive: 29.1 µM [falling, partial curve, poor fit]. With `COc1cc(/C=C(/C#N)c2nc3ccccc3[nH]2)ccc1Oc1ncccc1[N+](=O)[O-]` the Potency was inconclusive: 0.651 µM [activator, partial curve, poor fit]. For `O=C(N/N=C/c1ccc([N+](=O)[O-])o1)c1cc(-c2ccncc2)nc2ccccc12`, the Potency was inconclusive: 14.1 µM [falling, single point]. For `CC1(C)CN=c2s/c(=C\c3ccc(Cl)cc3)c(=O)n2C1`, the Potency was inconclusive: 29.1 µM [falling, single point]. With `COc1ccc(N2CCN(C(=O)CCS(=O)(=O)c3ccc4c(c3)CCN4C(=O)C3CC3)CC2)cc1` the “activity change, negative = cytotoxicity” value was inactive: 3.11%. In the case of `Cc1nnc(N2CCCC(C(=O)NCCc3ccccc3)C2)c2nn(-c3ccccc3)c(C)c12` (centres undefined), the Potency was inconclusive: 18.4 µM [falling, partial curve, poor fit]. For `O=C(c1cccc(COc2cccc3ccccc23)c1)N1CCCC1`, the Potency was inconclusive: 32.6 µM [falling, partial curve, poor fit]. For `O=C(NC(=S)N1CCN(c2ccc([N+](=O)[O-])cc2)CC1)c1ccc(F)cc1`, the Potency was inconclusive: 29.1 µM [falling, single point]. For `O=[N+]([O-])c1c(Nc2ccccc2)ccc2nonc12`, the Potency was inconclusive: 32.6 µM [falling, partial curve, poor fit]. For `CCOc1ccc(S(=O)(=O)Nc2ccc3c(c2)n(C)c(=O)n3C)cc1`, the “activity change, negative = cytotoxicity” value was inactive: 1.95%. For `COc1ccc(-c2cc(C(F)(F)F)nc(-n3cc(Cl)cn3)n2)cc1`, the Potency was inconclusive: 29.1 µM [falling, single point]. In the case of `COc1cc2ccccc2cc1C(=O)N1CCN(c2ccccn2)CC1`, the “activity change, negative = cytotoxicity” value was inactive: 2.25%. With `CCOC(=O)c1cc2nc(Nc3ccc(OC)cc3)sc2s1` the Potency was inconclusive: 29.1 µM [falling, single point]. In the case of `O=C(Nc1ccc(Cl)cc1)N1CCC(c2nc(-c3ccccc3Cl)no2)CC1`, the “activity change, negative = cytotoxicity” value was inactive: -23%. In the case of `O=C1CCCC/C1=C\Nc1ccccc1C(=O)O`, the Potency was inconclusive: 7.31 µM [falling, partial curve, poor fit]. For `CC(C)c1ccc(CN(C(=O)C2COc3ccccc3O2)C2CCS(=O)(=O)C2)cc1` (centres undefined), the “activity change, negative = cytotoxicity” value was inactive: -1.57%. With `O=C1c2ccc(Cl)cc2S(=O)(=O)c2cccc(C(=O)N3CCN(c4ccc(Cl)cn4)CC3)c21` the Potency was inconclusive: 29.1 µM [falling, single point]. In the case of `CCN1CCN(Cc2c(O)ccc3cc(-c4ccc(OC)cc4)c(=O)oc23)CC1`, the Potency was inconclusive: 29.1 µM [activator, single point]. With `CCN1CCN(c2cc(C)c3cc(NC(=O)c4ccc(OC)c(OC)c4)ccc3n2)CC1` the Potency was active: 16.4 µM. In the case of `O=C(CSc1nnc(-c2ccco2)n1Cc1ccccc1)NC(=O)NCc1ccccc1`, the “activity change, negative = cytotoxicity” value was inactive: 2.02%. In the case of `Clc1cccc(N=C2NN=C(c3ccc4c(c3)OCCO4)CS2)c1`, the Potency was inconclusive: 25.9 µM [falling, single point]. For `C=CC[n+]1c(-c2ccc(OC)c(OC)c2)csc1NNC(=O)Nc1ccccc1`, the Potency was inconclusive: 23.1 µM [falling, single point]. For `CC(C)c1ccc(C2C3=C(COC3=O)Nc3cc4c(cc32)OCO4)cc1` (centres undefined), the Potency was inconclusive: 1.3 µM [falling, full curve]. For `CC[C@@]1(C(=O)OC)N[C@H](CN(C)C(=O)c2ccc(C(C)(C)C)cc2)[C@@H]2C(=O)N(Cc3ccccc3)C(=O)[C@@H]21`, the Potency was inconclusive: 29.1 µM [falling, single point]. With `CC(=O)Nc1c(Cl)cnn(-c2ccccc2)c1=O` the Potency was inconclusive: 18.4 µM [falling, partial curve, poor fit]. In the case of `CCOC(=O)c1cc(C)sc1NC(=O)CN1CCN(C(=O)c2ccco2)CC1`, the “activity change, negative = cytotoxicity” value was inactive: -7.21%. For `O=C(CN1CCCCCC1)Nc1cccc([N+](=O)[O-])c1`, the Potency was inconclusive: 9.2 µM [activator, partial curve]. For `O=C(NCCN1CCCC1)C(c1ccccc1)c1ccccc1`, the Potency was inconclusive: 0.92 µM [activator, full curve, poor fit]. For `CS(=O)(=O)c1ccc(C(=O)OCC(=O)Nc2ccc(OC(F)(F)F)cc2)cc1[N+](=O)[O-]`, the “activity change, negative = cytotoxicity” value was inactive: 7.62%. With `CC(=O)c1ccc(N2CCN(c3ccc(C(F)(F)F)cn3)CC2)cc1` the “activity change, negative = cytotoxicity” value was inactive: 0.227%. With `O=C1CCC(=O)N1c1nc2n(n1)C(c1ccccc1)C=C(c1ccc(Br)cc1)N2` (centres undefined) the Potency was inconclusive: 13 µM [activator, partial curve, poor fit]. In the case of `O=C(Cn1nc(C(F)(F)F)c2c1CCCC2)Nc1ccc(Cl)cc1`, the Potency was inconclusive: 32.6 µM [falling, partial curve, poor fit]. For `CCOC(=O)CC1C(=O)NCCN1c1nc2ccc(C)cn2c(=O)c1/C=C1\SC(=S)N(CC(C)C)C1=O` (centres undefined), the Potency was inconclusive: 23.1 µM [falling, single point]. For `CCSc1nc2sc3c(c2c(=O)[nH]1)CCc1ccccc1-3`, the Potency was inconclusive: 16.4 µM [activator, single point]. With `O=C(CCNc1ccc(Cc2ccncc2)cc1)c1ccc([N+](=O)[O-])cc1` the “activity change, negative = cytotoxicity” value was inactive: -7.11%. For `CCc1ccc(CN(C)CC(=O)Nc2ccccc2[N+](=O)[O-])cc1`, the Potency was inconclusive: 18.4 µM [activator, partial curve, poor fit]. In the case of `CC(C)(C)NC(=O)NC(=O)CN1CCN(C(c2ccccc2)c2ccccc2)CC1`, the “activity change, negative = cytotoxicity” value was inactive: 0.2%. For `COc1ccc2c(C(=O)CCl)c[nH]c2c1`, the Potency was inconclusive: 32.6 µM [falling, partial curve, poor fit]. In the case of `Cc1ccc(-c2[nH]ncc2/C=N/n2c(COc3ccccc3C)nc3ccccc3c2=O)cc1`, the Potency was inconclusive: 29.1 µM [falling, single point]. For `NS(=O)(=O)c1ccc(NC(=O)c2ccc(S(=O)(=O)N3CCc4ccccc43)cc2)cc1`, the “activity change, negative = cytotoxicity” value was inactive: 0.396%. With `Cc1nnc(N2CCCC(C(=O)NCc3ccc(OC(C)C)cc3)C2)c2nn(-c3ccccc3)c(C)c12` (centres undefined) the Potency was inconclusive: 13 µM [falling, partial curve]. For `CCOC(=O)c1ccc(N2C(=O)c3n[nH]c(C)c3C2c2ccc(OC)cc2OC)cc1` (centres undefined), the Potency was inconclusive: 29.1 µM [falling, single point]. For `Cc1cccc(N/N=C(\C(N)=O)C2=NC(C)(C)Cc3ccccc32)c1`, the Potency was inconclusive: 23.1 µM [falling, single point]. In the case of `O=C(CCN1CCN(c2ccccc2)CC1)N/N=C/c1ccc([N+](=O)[O-])o1`, the Potency was inconclusive: 20.6 µM [falling, partial curve, poor fit]. For `CS(=O)(=O)c1ccc(-c2nnc(NC(=O)c3ccc(S(=O)(=O)N4CCCC4)cc3)o2)cc1`, the Potency was inconclusive: 16.4 µM [falling, partial curve, poor fit]. In the case of `CN(C(=O)CSc1nc2ccc(Cl)cc2[nH]1)C1CCS(=O)(=O)C1` (centres undefined), the “activity change, negative = cytotoxicity” value was inactive: 11.4%. For `CN(Cc1ccccc1)C(=O)C1CCN(Cc2cc3ccccc3n2Cc2ccccc2)CC1`, the “activity change, negative = cytotoxicity” value was inactive: -19.5%. In the case of `CSc1nncc(/C(C)=N\Nc2ccccc2C)n1`, the Potency was inconclusive: 32.6 µM [falling, partial curve, poor fit]. With `Cc1ccc(N(CC(=O)Nc2ccc(C)cc2C)S(=O)(=O)N2CCCC2)cc1` the Potency was inconclusive: 29.1 µM [falling, partial curve, poor fit]. With `O=C(CNC(=O)c1ccc(-c2ccccc2)cc1)OCc1c(F)cccc1Cl` the “activity change, negative = cytotoxicity” value was inactive: 0.739%. For `O=C(/C=C/c1ccc(-c2ccccc2[N+](=O)[O-])o1)c1ccc(Br)cc1`, the “activity change, negative = cytotoxicity” value was inactive: -0.357%. With `Cc1ccc(-c2nnc(SCC(=O)N/N=C/c3c(C)nn(-c4ccccc4)c3C)n2-c2ccc(C)cc2)cc1` the Potency was inconclusive: 32.6 µM [falling, partial curve, poor fit].
